Measured values from patent publication US9863966B2 (priority 2012, dated 2018).

Tested on: monoclonal antibody from hybridoma cell line NM4.3F5.C10.B7.B2.B2.C4
Assay type: binding, sheep

| Compound | IC50 (antibody sensitivity) | % Cross Reactivity |
| --- | --- | --- |
| CCOC(=O)C1(c2ccccc2)CCN(C)CC1 [Meperidine] | about 0.5 ng/ml |  |
| CN1CC[C@]23c4c5ccc(O)c4O[C@H]2[C@@H](O)C=C[C@H]3[C@H]1C5.O=S(=O)(O)O [Morphine Sulfate Salt] |  | <1% |
